Test results from PubChem BioAssay AID2685 (National Center for Advancing Translational Sciences (NCATS), 2010).
The other results are listed elsewhere or left out. Further columns of the screen follow, without active or inactive calls. Most of these compounds were active or inconclusive in the main read-out, so they are no random draw. Words in brackets tell the shape of the fitted curve; partial curves, single points and poor fits give uncertain potencies.

Assay: qHTS Assay for Lipid Storage Modulators in Drosophila S3 Cells;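 as to cell number change: cells counted by Cell Tracker Red CMTPX staining in the red channel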
Details: BODIPY lipid droplet fluorescence, 18-24 h; for cell number change: measured here: cell count max response, cells fed with added oleic acid
In short: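 Drosophila S3 cells got compounds at several concentrations plus oleic acid (400 uM solution). Laser-scanning cytometry with 488 nm excitation read lipid droplets at 500-530 nm and cells at 575-640 nm. Percent activity was relative to 20 uM Triacsin C.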

[1] = measured here: lipid fluorescence (Fed channel) AC50, cells fed with added oleic acid
[2] = measured here: cell number channel AC50, cells fed with added oleic acid

With `COc1ccc(-c2c(C#N)c(N)nc3sc(C(=O)c4ccc(C)cc4)c(N)c23)cc1` the cell number change was 2.67% and the AC50 [1] was 29.1 µM [falling, partial curve, poor fit].
In the case of `COc1ccc(C)c2sc(N(CCCN(C)C)C(=O)CS(=O)(=O)c3ccc(F)cc3)nc12`, the cell number change is reported as 6.81%, the AC50 [2] is reported as 1.46 µM [falling, partial curve] and the AC50 [1] is reported as 2.06 µM [falling, partial curve].
In the case of `C=CCOCCn1[nH]c2ccccc2c1=O`, the cell number change is reported as 33.6%, the AC50 [2] is reported as 7.31 µM [rising, partial curve, poor fit] and the AC50 [1] is reported as 5.8 µM [rising, full curve].
For `O=C(N/N=C\c1cn[nH]c1-c1ccccc1)c1ccc([N+](=O)[O-])cc1`, the cell number change was 11.6% and the AC50 [1] was 29.1 µM [falling, single point].
In the case of `O=C1NN(c2ccccc2)C(=O)/C1=C\c1ccccc1`, the cell number change is reported as -21.2%.
In the case of `COc1cccc(CNC(=O)CCNC(=O)C2CCN(S(=O)(=O)c3ccccc3)CC2)c1`, the cell number change is reported as 27.8% and the AC50 [1] is reported as 0.184 µM [rising, full curve, poor fit].
In the case of `CCOc1ccc(-n2c(Cc3cc(=O)[nH]c(=O)[nH]3)nnc2SCC(=O)Nc2nnc(C)s2)cc1`, the cell number change is reported as -46%, the AC50 [2] is reported as 0.259 µM [falling, full curve, poor fit] and the AC50 [1] is reported as 0.146 µM [falling, single point].
With `Cc1ccc(-c2csc3nc[nH]c(=O)c23)cc1` the cell number change was 20.1% and the AC50 [1] was 0.651 µM [falling, partial curve, poor fit].
In the case of `CC(CCc1ccccc1)NC(=O)COC(=O)c1cccn1C` (stereo not drawn), the cell number change is reported as -18.7% and the AC50 [1] is reported as 4.11 µM [falling, full curve].
In the case of `CCOC(=O)N1CCN(Cc2oc(CO)cc(=O)c2O)CC1`, the cell number change is reported as 0.429% and the AC50 [1] is reported as 0.82 µM [falling, full curve].
For `Cc1ccc(N2CC(C(=O)NCCS(=O)(=O)N3CCN(c4ccc(F)cc4)CC3)CC2=O)cc1` (stereo not drawn), the AC50 [1] was 1.46 µM [falling, partial curve].
In the case of `Nc1ccn([C@H]2CS[C@@H](CO)O2)c(=O)n1`, the cell number change is reported as -38.2%, the AC50 [2] is reported as 25.9 µM [falling, single point] and the AC50 [1] is reported as 1.16 µM [rising, single point].
For `Cc1ccc(Oc2ccc(S(=O)(=O)N3CCOCC3)cc2C(N)=O)c(-n2nc3ccccc3n2)c1`, the cell number change was -28.4% and the AC50 [1] was 29.1 µM [falling, single point].
For `N#CCCNC(=O)CCN1CCOCC1`, the cell number change was 8.81%.
For `C#CCOC(=O)C[N+](C)(C)C/C=C/c1ccccc1`, the cell number change was 2.52% and the AC50 [1] was 20.6 µM [rising, single point].
In the case of `Oc1c(CN2CCOCC2)cc(-c2ccccc2)cc1CN1CCOCC1`, the cell number change is reported as 18.1% and the AC50 [1] is reported as 20.6 µM [rising, partial curve, poor fit].
